From patent US12729225B2, “Non-canonical SWI/SNF complex and uses thereof” (Dana-Farber Cancer Institute, Inc., priority 2018, dated 2026)

Test system: mSWI/SNF complexes
Test: mSWI/SNF complex purification with HA-tagged baits and mass spectrometry (peptide counts)
Parameters: species or system human
Conditions: 293_HA-BRD7 bait purification, mass spectrometry; for Total: total peptides per co-purified protein; for Unique: unique peptides per co-purified protein

| Molecule | Total | Unique |
| --- | --- | --- |
| GPATCH4 (protein, UniProt Q5T3I0 1-446, looked up) G patch domain-containing …: MNVTPEVKSRGMKFAEEQLLKHGWTQGKGLGRKENGITQALRVTLKQDTHGVGHDPAKEFTNHWWNELFNKTAANLVVETGQDGVQIRSLSKETTRYNHPKPNLLYQKFVKMATLTSGGEKPNKDLESCSDDDNQGSKSPKILTDEMLLQACEGRTAHKAARLGITMKAKLARLEAQEQAFLARLKGQDPGAPQLQSESKPPKKKKKKRRQKEEEEATASERNDADEKHPEHAEQNIRKSKKKKRRHQEGKVSDEREGTTKGNEKEDAAGTSGLGELNSREQTNQSLRKGKKKKRWHHEEEKMGVLEEGGKGKEAAGSVRTEEVESRAYADPCSRRKKRQQQEEEDLNLEDRGEETVLGGGTREAESRACSDGRSRKSKKKRQQHQEEEDILDVRDEKDGGAREAESRAHTGSSSRGKRKRQQHPKKERAGVSTVQKAKKKQKKRD | 2 | 2 |
| HSD17B4 (protein, UniProt P51659 1-736, looked up) Peroxisomal multifunctional …: MGSPLRFDGRVVLVTGAGAGLGRAYALAFAERGALVVVNDLGGDFKGVGKGSLAADKVVEEIRRRGGKAVANYDSVEEGEKVVKTALDAFGRIDVVVNNAGILRDRSFARISDEDWDIIHRVHLRGSFQVTRAAWEHMKKQKYGRIIMTSSASGIYGNFGQANYSAAKLGLLGLANSLAIEGRKSNIHCNTIAPNAGSRMTQTVMPEDLVEALKPEYVAPLVLWLCHESCEENGGLFEVGAGWIGKLRWERTLGAIVRQKNHPMTPEAVKANWKKICDFENASKPQSIQESTGSIIEVLSKIDSEGGVSANHTSRATSTATSGFAGAIGQKLPPFSYAYTELEAIMYALGVGASIKDPKDLKFIYEGSSDFSCLPTFGVIIGQKSMMGGGLAEIPGLSINFAKVLHGEQYLELYKPLPRAGKLKCEAVVADVLDKGSGVVIIMDVYSYSEKELICHNQFSLFLVGSGGFGGKRTSDKVKVAVAIPNRPPDAVLTDTTSLNQAALYRLSGDWNPLHIDPNFASLAGFDKPILHGLCTFGFSARRVLQQFADNDVSRFKAIKARFAKPVYPGQTLQTEMWKEGNRIHFQTKVQETGDIVISNAYVDLAPTSGTSAKTPSEGGKLQSTFVFEEIGRRLKDIGPEVVKKVNAVFEWHITKGGNIGAKWTIDLKSGSGKVYQGPAKGAADTTIILSDEDFMEVVLGKLDPQKAFFSGRLKARGNIMLSQKLQMILKDYAKL | 2 | 2 |
| SLC16A1 (protein, UniProt P53985 1-500, looked up) Monocarboxylate transporter 1: MPPAVGGPVGYTPPDGGWGWAVVIGAFISIGFSYAFPKSITVFFKEIEGIFHATTSEVSWISSIMLAVMYGGGPISSILVNKYGSRIVMIVGGCLSGCGLIAASFCNTVQQLYVCIGVIGGLGLAFNLNPALTMIGKYFYKRRPLANGLAMAGSPVFLCTLAPLNQVFFGIFGWRGSFLILGGLLLNCCVAGALMRPIGPKPTKAGKDKSKASLEKAGKSGVKKDLHDANTDLIGRHPKQEKRSVFQTINQFLDLTLFTHRGFLLYLSGNVIMFFGLFAPLVFLSSYGKSQHYSSEKSAFLLSILAFVDMVARPSMGLVANTKPIRPRIQYFFAASVVANGVCHMLAPLSTTYVGFCVYAGFFGFAFGWLSSVLFETLMDLVGPQRFSSAVGLVTIVECCPVLLGPPLLGRLNDMYGDYKYTYWACGVVLIISGIYLFIGMGINYRLLAKEQKANEQKKESKEEETSIDVAGKPNEVTKAAESPDQKDTDGGPKEEESPV | 2 | 2 |
| KRT6B (protein, UniProt P04259 2-564, looked up) Keratin, type II cytoskeletal …: ASTSTTIRSHSSSRRGFSANSARLPGVSRSGFSSISVSRSRGSGGLGGACGGAGFGSRSLYGLGGSKRISIGGGSCAISGGYGSRAGGSYGFGGAGSGFGFGGGAGIGFGLGGGAGLAGGFGGPGFPVCPPGGIQEVTVNQSLLTPLNLQIDPAIQRVRAEEREQIKTLNNKFASFIDKVRFLEQQNKVLDTKWTLLQEQGTKTVRQNLEPLFEQYINNLRRQLDNIVGERGRLDSELRNMQDLVEDLKNKYEDEINKRTAAENEFVTLKKDVDAAYMNKVELQAKADTLTDEINFLRALYDAELSQMQTHISDTSVVLSMDNNRNLDLDSIIAEVKAQYEEIAQRSRAEAESWYQTKYEELQITAGRHGDDLRNTKQEIAEINRMIQRLRSEIDHVKKQCANLQAAIADAEQRGEMALKDAKNKLEGLEDALQKAKQDLARLLKEYQELMNVKLALDVEIATYRKLLEGEECRLNGEGVGQVNISVVQSTVSSGYGGASGVGSGLGLGGGSSYSYGSGLGVGGGFSSSSGRATGGGLSSVGGGSSTIKYTTTSSSSRKSYKH | 2 | 2 |
| UBTF (protein, UniProt P17480 1-764, looked up) Nucleolar transcription …: MNGEADCPTDLEMAAPKGQDRWSQEDMLTLLECMKNNLPSNDSSKFKTTESHMDWEKVAFKDFSGDMCKLKWVEISNEVRKFRTLTELILDAQEHVKNPYKGKKLKKHPDFPKKPLTPYFRFFMEKRAKYAKLHPEMSNLDLTKILSKKYKELPEKKKMKYIQDFQREKQEFERNLARFREDHPDLIQNAKKSDIPEKPKTPQQLWYTHEKKVYLKVRPDATTKEVKDSLGKQWSQLSDKKRLKWIHKALEQRKEYEEIMRDYIQKHPELNISEEGITKSTLTKAERQLKDKFDGRPTKPPPNSYSLYCAELMANMKDVPSTERMVLCSQQWKLLSQKEKDAYHKKCDQKKKDYEVELLRFLESLPEEEQQRVLGEEKMLNINKKQATSPASKKPAQEGGKGGSEKPKRPVSAMFIFSEEKRRQLQEERPELSESELTRLLARMWNDLSEKKKAKYKAREAALKAQSERKPGGEREERGKLPESPKRAEEIWQQSVIGDYLARFKNDRVKALKAMEMTWNNMEKKEKLMWIKKAAEDQKRYERELSEMRAPPAATNSSKKMKFQGEPKKPPMNGYQKFSQELLSNGELNHLPLKERMVEIGSRWQRISQSQKEHYKKLAEEQQKQYKVHLDLWVKSLSPQDRAAYKEYISNKRKSMTKLRGPNPKSSRTTLQSKSESEEDDEEDEDDEDEDEEEEDDENGDSSEDGGDSSESSSEDESEDGDENEEDDEDEDDDEDDDEDEDNESEGSSSSSSSSGDSSDSDSN | 2 | 2 |
| LETM1 (protein, UniProt O95202 116-739, looked up) Mitochondrial proton/calcium …: DDSVVEKSLKSLKDKNKKLEEGGPVYSPPAEVVVKKSLGQRVLDELKHYYHGFRLLWIDTKIAARMLWRILNGHSLTRRERRQFLRICADLFRLVPFLVFVVVPFMEFLLPVAVKLFPNMLPSTFETQSLKEERLKKELRVKLELAKFLQDTIEEMALKNKAAKGSATKDFSVFFQKIRETGERPSNEEIMRFSKLFEDELTLDNLTRPQLVALCKLLELQSIGTNNFLRFQLTMRLRSIKADDKLIAEEGVDSLNVKELQAACRARGMRALGVTEDRLRGQLKQWLDLHLHQEIPTSLLILSRAMYLPDTLSPADQLKSTLQTLPEIVAKEAQVKVAEVEGEQVDNKAKLEATLQEEAAIQQEHREKELQKRSEVAKDFEPERVVAAPQRPGTEPQPEMPDTVLQSETLKDTAPVLEGLKEEEITKEEIDILSDACSKLQEQKKSLTKEKEELELLKEDVQDYSEDLQEIKKELSKTGEEKYVEESKASKRLTKRVQQMIGQIDGLISQLEMDQQAGKLAPANGMPTGENVISVAELINAMKQVKHIPESKLTSLAAALDENKDGKVNIDDLVKVIELVDKEDVHISTSQVAEIVATLEKEEKVEEKEKAKEKAEKEVAEVKS | 2 | 2 |
| PDIA4 (protein, UniProt P13667 21-645, looked up) Protein disulfide-isomerase A4: VAGAEGPDEDSSNRENAIEDEEEEEEEDDDEEEDDLEVKEENGVLVLNDANFDNFVADKDTVLLEFYAPWCGHCKQFAPEYEKIANILKDKDPPIPVAKIDATSASVLASRFDVSGYPTIKILKKGQAVDYEGSRTQEEIVAKVREVSQPDWTPPPEVTLVLTKENFDEVVNDADIILVEFYAPWCGHCKKLAPEYEKAAKELSKRSPPIPLAKVDATAETDLAKRFDVSGYPTLKIFRKGRPYDYNGPREKYGIVDYMIEQSGPPSKEILTLKQVQEFLKDGDDVIIIGVFKGESDPAYQQYQDAANNLREDYKFHHTFSTEIAKFLKVSQGQLVVMQPEKFQSKYEPRSHMMDVQGSTQDSAIKDFVLKYALPLVGHRKVSNDAKRYTRRPLVVVYYSVDFSFDYRAATQFWRSKVLEVAKDFPEYTFAIADEEDYAGEVKDLGLSESGEDVNAAILDESGKKFAMEPEEFDSDTLREFVTAFKKGKLKPVIKSQPVPKNNKGPVKVVVGKTFDSIVMDPKKDVLIEFYAPWCGHCKQLEPVYNSLAKKYKGQKGLVIAKMDATANDVPSDRYKVEGFPTIYFAPSGDKKNPVKFEGGDRDLEHLSKFIEEHATKLSRTKEEL | 2 | 2 |
| MCM5 (protein, UniProt P33992 2-734, looked up) DNA replication licensing …: SGFDDPGIFYSDSFGGDAQADEGQARKSQLQRRFKEFLRQYRVGTDRTGFTFKYRDELKRHYNLGEYWIEVEMEDLASFDEDLADYLYKQPAEHLQLLEEAAKEVADEVTRPRPSGEEVLQDIQVMLKSDASPSSIRSLKSDMMSHLVKIPGIIIAASAVRAKATRISIQCRSCRNTLTNIAMRPGLEGYALPRKCNTDQAGRPKCPLDPYFIMPDKCKCVDFQTLKLQELPDAVPHGEMPRHMQLYCDRYLCDKVVPGNRVTIMGIYSIKKFGLTTSRGRDRVGVGIRSSYIRVLGIQVDTDGSGRSFAGAVSPQEEEEFRRLAALPNVYEVISKSIAPSIFGGTDMKKAIACLLFGGSRKRLPDGLTRRGDINLLMLGDPGTAKSQLLKFVEKCSPIGVYTSGKGSSAAGLTASVMRDPSSRNFIMEGGAMVLADGGVVCIDEFDKMREDDRVAIHEAMEQQTISIAKAGITTTLNSRCSVLAAANSVFGRWDETKGEDNIDFMPTILSRFDMIFIVKDEHNEERDVMLAKHVITLHVSALTQTQAVEGEIDLAKLKKFIAYCRVKCGPRLSAEAAEKLKNRYIIMRSGARQHERDSDRRSSIPITVRQLEAIVRIAEALSKMKLQPFATEADVEEALRLFQVSTLDAALSGTLSGVEGFTSQEDQEMLSRIEKQLKRRFAIGSQVSEHSIIKDFTKQKYPEHAIHKVLQLMLRRGEIQHRMQRKVLYRLK | 2 | 2 |
| CCDC59 (protein, UniProt Q9P031 1-241, looked up) Thyroid transcription factor …: MAPVRRSAKWRPGGIEARGEGVSTVGYRNKNVRQKTWRPNHPQAFVGSVREGQGFAFRRKLKIQQSYKKLLRKEKKAQTSLESQFTDRYPDNLKHLYLAEEERHRKQARKVDHPLSEQVHQPLLEEQCSIDEPLFEDQCSFDQPQPEEQCIKTVNSFTIPKKNKKKTSNQKAQEEYEQIQAKRAAKKQEFERRKQEREEAQRQYKKKKMEVFKILNKKTKKGQPNLNVQMEYLLQKIQEKC | 2 | 2 |
| KDM4D (protein, UniProt Q6B0I6 1-523, looked up) Lysine-specific demethylase 4D: METMKSKANCAQNPNCNIMIFHPTKEEFNDFDKYIAYMESQGAHRAGLAKIIPPKEWKARETYDNISEILIATPLQQVASGRAGVFTQYHKKKKAMTVGEYRHLANSKKYQTPPHQNFEDLERKYWKNRIYNSPIYGADISGSLFDENTKQWNLGHLGTIQDLLEKECGVVIEGVNTPYLYFGMWKTTFAWHTEDMDLYSINYLHLGEPKTWYVVPPEHGQRLERLARELFPGSSRGCGAFLRHKVALISPTVLKENGIPFNRITQEAGEFMVTFPYGYHAGFNHGFNCAEAINFATPRWIDYGKMASQCSCGEARVTFSMDAFVRILQPERYDLWKRGQDRAVVDHMEPRVPASQELSTQKEVQLPRRAALGLRQLPSHWARHSPWPMAARSGTRCHTLVCSSLPRRSAVSGTATQPRAAAVHSSKKPSSTPSSTPGPSAQIIHPSNGRRGRGRPPQKLRAQELTLQTPAKRPLLAGTTCTASGPEPEPLPEDGALMDKPVPLSPGLQHPVKASGCSWAPVP | 2 | 2 |
